In patent EP0288243A2, “Acetylcholinesterase” (priority 1987, dated 1988):
Part of at least one peptide drawing is inferred or uncertain, most often the ends. Residues, ends and D or L forms follow the SMILES beside them.

Test system: nigrostriatal neurons in brain slices
Assay: membrane properties of nigrostriatal neurons in brain slices maintained in vitro (intracellular microelectrode recording)
Type: cell-based, guinea-pigs

Structure (SMILES): O=C(O)CC[C@H](NC(=O)[C@@H]1CCCN1)C(=O)N1CCC[C@H]1C(=O)O [Pro-Glu-Pro] (H-Pro-Glu-Pro-OH)
- action on the nerve cell's membrane (bath concentrations above 5 microgram/ml, tested range 2.5 microgram/ml to 20 microgram/ml): caused a hyperpolarisation of the nerve cell's membrane
- concentration of the peptide causing hyperpolarisation (final bath concentration, tested range 2.5 to 20 microgram/ml): above 5 microgram/ml
- onset and reversibility of the effect compared with AChE (hyperpolarisation of nigrostriatal neurons): more rapid in onset and more rapidly reversible than with AChE
